Among all 360,000 compounds or so, about 10,000 (2.8%) were called active. The inconclusive results got no clear call from the source; some entries with a clear call stand among them for comparison. Calls come from the whole dose curve; as a rule, active = well fitted inhibition curve with a large enough effect; inconclusive = small, poorly fitted or top-dose-only effect; inactive = flat fitted curve, though single readings scatter. A potency beside an inconclusive call is a rough fit, not a confirmed value.
biological target: Serine/threonine-protein kinase PLK1 (Homo sapiens) (UniProt P53350); assay: qHTS for Inhibitors of PLK1-PDB (polo-like kinase 1 - polo-box domain): Primary Screen; conditions: Plk1 PBD binding of FITC phosphopeptide, fluorescence polarization; note: nearly all actives have a fitted effect of over 65% in size; for max response, negative = inhibition: series mostly up to about 57 µM
% is set by controls: 0 for no effect and ±100 for the full control effect; potency is the fitted concentration of half-maximal effect.

Protein sequences, listed by entry. Tags and fused reporters are not part of them.
UniProt P53350, whole entry, looked up: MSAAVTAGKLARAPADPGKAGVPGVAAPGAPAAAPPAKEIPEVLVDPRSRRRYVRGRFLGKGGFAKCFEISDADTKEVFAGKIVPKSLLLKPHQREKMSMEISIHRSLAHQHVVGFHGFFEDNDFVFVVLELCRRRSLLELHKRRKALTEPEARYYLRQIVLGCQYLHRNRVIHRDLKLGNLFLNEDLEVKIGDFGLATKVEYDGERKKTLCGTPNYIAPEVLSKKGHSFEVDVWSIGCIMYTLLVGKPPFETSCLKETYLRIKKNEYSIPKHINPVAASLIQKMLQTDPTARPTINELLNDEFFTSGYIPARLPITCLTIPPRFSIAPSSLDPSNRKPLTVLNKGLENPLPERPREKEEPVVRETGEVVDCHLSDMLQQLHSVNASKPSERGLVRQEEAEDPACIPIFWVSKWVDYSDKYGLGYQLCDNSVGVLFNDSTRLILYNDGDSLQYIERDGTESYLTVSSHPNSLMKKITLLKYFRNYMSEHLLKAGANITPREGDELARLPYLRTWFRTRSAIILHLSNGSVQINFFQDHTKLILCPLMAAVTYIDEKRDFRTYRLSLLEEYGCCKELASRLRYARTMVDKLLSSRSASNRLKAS

Structure (SMILES) | Potency | max response, negative = inhibition
COc1cc2c(cc1OC)-c1cc(Nc3ccccc3C)nc(=O)n1CC2 | inconclusive: 37.7 µM [inhibitor, single point] | 
CCOC(=O)c1ccc(NC(=S)N(CCCN2CCN(C)CC2)Cc2cccs2)cc1 | inconclusive: 37.7 µM [inhibitor, single point] | 
COc1ccc([C@H]2C(C#N)=C([S-])N[C@](C)(O)[C@@H]2[n+]2ccccc2)cc1 | inconclusive: 26.7 µM [inhibitor, partial curve] | 
CC(C)=NN1C(c2nonc2N)=NOC1(C)C | inconclusive: 37.7 µM [inhibitor, single point] | 
O=C(Nc1ccc(F)cc1F)c1cccnc1 | active: 26.7 µM | 
COc1cc(/C=C/C(=O)O)cc(S(=O)(=O)NNC(=O)c2cc(C)oc2C)c1OC | inconclusive: 42.3 µM [inhibitor, partial curve] | 
C[C@@H](CN1C(=O)C(=O)NC[C@@H]1Cc1ccc(O)cc1)NC(=O)Cc1ccccc1 | inconclusive: 23.8 µM [inhibitor, single point] | 
O=[N+]([O-])c1cccc(-c2c(-c3ccccc3)ncc3ccc(F)cc23)c1 |  | inactive: -15.5%
Cc1ccc2sc(-c3ccc(NC(=O)/C=C\C(=O)O)cc3)nc2c1 | inconclusive: 23.8 µM [inhibitor, partial curve] | 
CC(=O)Nc1ccc(C(=O)OCC(=O)Nc2ccc(N3CCOCC3)cc2)cc1 |  | inactive: 1.67%
COc1ccc(Nc2nc(-c3cccc(OC)c3O)nc3ccccc23)cc1 |  | inactive: -3.54%
O=C(O)c1cccc(CN2C(=O)S/C(=C/c3cccc([N+](=O)[O-])c3)C2=O)c1 | inconclusive: 26.7 µM [inhibitor, partial curve] | 
CC(C)CN(CC(C)C)S(=O)(=O)N1CCC(C(=O)NCc2ccc3c(c2)OCO3)CC1 |  | inactive: -7.01%
O=c1[nH]cnc2nc(-c3ccccc3)c(-c3ccccc3)nc12 |  | inactive: -16.8%
Cc1ccccc1C(=O)Nc1sc(C)c(C)c1C(=O)c1ccccc1 | active: 21.2 µM | 
O=C(Oc1ccc(-c2ccccc2)cc1)c1ccco1 |  | inactive: 4.15%
Nn1c(SCC(=O)NC2CCS(=O)(=O)C2)nnc1-c1cccs1 (stereo not drawn) | inconclusive: 21.2 µM [inhibitor, partial curve, poor fit] | 
COc1ccc(/C=C/C(=O)NC(=S)Nc2ccc(S(=O)(=O)Nc3cc(C)on3)cc2)cc1 | inconclusive: 21.2 µM [inhibitor, partial curve] | 
CC(C)CCCCCCNC(=S)Nc1ccc(S(=O)(=O)N2CCOCC2)cc1 | inconclusive: 29.9 µM [inhibitor, single point] | 
O=C(CSc1ccccc1)Nc1cccnc1 | inconclusive: 21.2 µM [inhibitor, single point] | 
O=C(c1ccccc1)c1ccc(OCC(O)CNC2CCCc3ccccc32)cc1 (stereo not drawn) |  | inactive: 2.95%
Cc1cccc(CSc2nncc(=O)[nH]2)c1 | inconclusive: 21.2 µM [inhibitor, single point] | 
COCc1nnc(NC(=O)C2CC(=O)N(CCc3ccc(F)cc3)C2)s1 (stereo not drawn) | inconclusive: 29.9 µM [inhibitor, partial curve] | 
CC1=CCC(C(=O)O)C(C(=O)NC2CCCCC2)C1 (stereo not drawn) | active: 18.9 µM | 
Oc1ccccc1C=NN1CCCCCC1 |  | inactive: 3.32%

4 structures already listed, ordered by heavy-atom count, ascending:
Structure (SMILES) | Potency | max response, negative = inhibition
O=C(CSc1ccccc1)Nc1cccnc1 | inconclusive: 21.2 µM [inhibitor, single point] | 
CC1=CCC(C(=O)O)C(C(=O)NC2CCCCC2)C1 (stereo not drawn) | active: 18.9 µM | 
O=c1[nH]cnc2nc(-c3ccccc3)c(-c3ccccc3)nc12 |  | inactive: -16.8%
O=C(c1ccccc1)c1ccc(OCC(O)CNC2CCCc3ccccc32)cc1 (stereo not drawn) |  | inactive: 2.95%

Later entries

Structure (SMILES) | Potency | max response, negative = inhibition
CCOc1ccccc1NC(=O)CSc1nnc(-c2ccncc2)o1 | inconclusive: 18.9 µM [inhibitor, partial curve] | 
CCOc1ccc(NC(=S)NCC(c2cccnc2)N2CCOCC2)cc1 (stereo not drawn) | active: 26.7 µM | 
C=CCn1c(N)c(C(=O)N2CCOCC2)sc1=S | inconclusive: 28.2 µM [inhibitor, partial curve] | 
O=C(CCCC1=NS(=O)(=O)c2ccccc2N1)NCCc1ccc(Cl)cc1 | inconclusive: 23.8 µM [inhibitor, single point] | 
N#C/C(=C(/O)COc1ccccc1)c1nc2ccccc2s1 |  | inconclusive: -33.5% [inhibitor]
O=C(Oc1ccccc1)c1cccc2cccnc12 |  | inconclusive: -32.8% [inhibitor]
S=c1nc(-c2ccc(Br)cc2)[nH]c2ccccc12 | active: 11.9 µM | 
NCCCn1c(C(=O)c2cc(Cl)c(N)c(Cl)c2)c2ccc(C(F)(F)F)cc2[n+]1[O-] | inconclusive: 37.7 µM [inhibitor, single point] | 
Cc1[nH]n(C(C)(C)C)c(=O)c1Sc1ccccc1 | inconclusive: 23.8 µM [inhibitor, partial curve] | 
O=C(Oc1cccc2cccnc12)c1ccco1 |  | inactive: -6.55%
COc1ccccc1-n1c(C)cc(/C=C2/C(=N)N3C(=NC2=O)SN=C3S(C)(=O)=O)c1C | inconclusive: 23.8 µM [inhibitor, partial curve] | 
C=CCn1cccc(C(=O)Nc2ccc(C)c(C)c2)c1=O | active: 26.7 µM | 
Cc1ccc(NC(=O)CCC(=O)NNS(=O)(=O)c2ccccc2)cc1C | active: 26.7 µM | 
CCC(C)N(C(=O)COC(=O)CNC(=O)c1sc2ccccc2c1Cl)C1CCS(=O)(=O)C1 (stereo not drawn) |  | inactive: 5.57%
N/C(=N\OC(=O)c1cccc2ccccc12)c1cccnc1 | inconclusive: 29.9 µM [inhibitor, single point] | 
O=C(Nc1nnc(S(=O)(=O)N2CCOCC2)s1)c1ccccc1Br |  | inactive: -16.5%
CCCNC(=O)C(Cc1ccc(OC)cc1)NC(=O)c1ccc(Cl)cc1 (stereo not drawn) |  | inactive: 2.54%
Nc1nnc(SCC(=O)OCC(=O)NC23CC4CC(CC(C4)C2)C3)s1 | inconclusive: 26.7 µM [inhibitor, single point] | 
Cc1cc(C=O)c(C)n1-c1cc(C(=O)O)cc(C(=O)O)c1 | inconclusive: 26.7 µM [inhibitor, single point] | 
O=C(Nc1cccnc1)c1cccc(S(=O)(=O)Nc2ccccc2F)c1 | inconclusive: 29.9 µM [inhibitor, single point] | 
COc1ccc(C)cc1NC(=S)N1CC(C)OC(C)C1 (stereo not drawn) |  | inactive: 0.273%
O=C1c2ccccc2C(=O)N1CCSc1ccccc1 | active: 26.7 µM | 
CCCc1[nH]nc2c1C(c1ccccc1OC)C(C#N)=C(N)O2 (stereo not drawn) |  | inconclusive: -33.3% [inhibitor]
COc1cccc(/C=N/Nc2snc(SC)c2C#N)c1 | inconclusive: 26.7 µM [inhibitor, partial curve] | 
Cc1onc(-c2ccccc2)c1C(=O)Nc1ncc([N+](=O)[O-])s1 |  | inconclusive: -30.8% [inhibitor]

Structure (SMILES) | Potency | max response, negative = inhibition
Cc1cnc(C(=O)Oc2cccc(Cl)c2Cl)cn1 | inconclusive: 26.7 µM [inhibitor, partial curve] | 
CC(C)c1ccc(NC(=S)N(C)CCc2ccccn2)cc1 |  | inactive: -6.17%
O=C(Nc1cccc2[nH]c([C@H]3C[C@H](O)[C@@H](CO)O3)nc12)NC(c1ccccc1)c1ccccc1 |  | inactive: -1.1%
CCOc1cc(N2CCOCC2)c(OCC)cc1NC(=O)c1cccc(S(=O)(=O)N2CC(C)OC(C)C2)c1 (stereo not drawn) |  | inactive: -1.94%
Clc1ccc(-c2nnc3sc(-c4ccc(Br)o4)nn23)cc1 | inconclusive: 23.8 µM [inhibitor, partial curve] | 
Cc1cc(C)c2c(CN3CCCCC3)cc(=O)oc2c1 |  | inactive: 0.565%
CCN(CC)CCNC(=O)Cn1nc(Cc2ccccc2)c2ccccc2c1=O | inconclusive: 26.7 µM [inhibitor, partial curve] | 
O=C(NC(=S)Nn1cnnc1)c1cccc(Br)c1 | inconclusive: 15 µM [inhibitor, partial curve] | 
O=C(Nc1nc2ccccc2c(=O)s1)c1ccco1 |  | inconclusive: -34.7% [inhibitor]
CC1(c2ccccc2Cl)NC(=O)N(CC(=O)Nc2ccccc2OC(F)F)C1=O (stereo not drawn) | inconclusive: 16.8 µM [inhibitor, single point] | 
S=C(NCc1cccs1)Nc1cccc2ccccc12 | inconclusive: 33.6 µM [inhibitor, single point] | 
COc1ccccc1N1CCN(CCCCNC(=O)c2ccc3ccccc3c2)CC1 |  | inactive: 4.17%
CCCCCCCCCCCCC(=O)CCCCC(=O)O | inconclusive: 33.6 µM [inhibitor, single point] | 
CCn1c(SCC(=O)c2ccc(Cl)cc2)nnc1-c1cccs1 | inconclusive: 26.7 µM [inhibitor, partial curve] | 
COc1ccc(-c2n[nH]c(=S)n2Cc2ccccc2)cc1OC |  | inactive: -13.3%
O=C(CNc1ccccc1)NNC1=NCCC1 |  | inconclusive: -22.5% [inhibitor]
Cc1c(/C=C2\SC(=O)N(CC(=O)Nc3ccc4c(c3)OCO4)C2=O)c2ccccc2n1C |  | inactive: -4.82%
CCOC(=O)c1cc2c(ccn2C)n1CC(=O)N1CCCC(C)C1 (stereo not drawn) |  | inactive: -3.54%
O=C(CCc1ccccc1)Nc1ccc(S(=O)(=O)NC2=NCCCCC2)cc1 | inconclusive: 26.7 µM [inhibitor, single point] | 
Cc1ccc(/C=C2\SC(=S)N(CC3CCCO3)C2=O)o1 (stereo not drawn) | active: 23.8 µM | 
Cc1cc(C)cc(Cn2ncc(Cl)c(Cl)c2=O)c1 | inconclusive: 29.9 µM [inhibitor, partial curve] | 
Cc1ccc(NC(=O)CN2C(=O)S/C(=C/c3ccc(-c4cccc(C(=O)O)c4)o3)C2=O)cc1 | inconclusive: 16.8 µM [inhibitor, partial curve] | 
Cc1cccc2nc(CSCc3ccco3)cn12 | inconclusive: 21.2 µM [inhibitor, partial curve] | 

— PubChem BioAssay AID720504 (National Center for Advancing Translational Sciences (NCATS), 2013)
